These are yes or no findings as the source states them, for the method shown. In cells and extracts the contact can be indirect. Some results given as binding are weak or reduced against the parent protein; the word gives no strength.
What was measured:
[1] = molecular target: Atg3, expressed from an Atg3 plasmid (UniProt Q9NT62); assay: co-IP; LNCaP cells transfected with CLU, Atg3 and LC3 plasmids, treated with 10 uM MG132+CQ; NP40 lysis buffer, 800 ug protein, 4 ug Atg3 antibody or CLU antibody overnight at 4 C, protein-A/G sepharose; western blot
[2] = molecular target: Clusterin (CLU), expressed from a CLU plasmid (UniProt P10909); assay: as above

By UniProt entry, the sequences of proteins in these tests, tags left out. Residues count along the entry.
UniProt Q9NT62: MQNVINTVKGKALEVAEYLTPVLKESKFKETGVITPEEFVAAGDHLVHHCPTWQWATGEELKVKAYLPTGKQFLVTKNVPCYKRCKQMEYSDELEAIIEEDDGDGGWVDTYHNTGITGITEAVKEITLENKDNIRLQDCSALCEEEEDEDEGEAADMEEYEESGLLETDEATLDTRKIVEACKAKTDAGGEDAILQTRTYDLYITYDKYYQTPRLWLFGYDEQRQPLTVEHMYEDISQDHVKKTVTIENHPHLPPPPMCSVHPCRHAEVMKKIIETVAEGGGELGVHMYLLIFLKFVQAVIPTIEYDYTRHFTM
UniProt P10909, residues 23-449: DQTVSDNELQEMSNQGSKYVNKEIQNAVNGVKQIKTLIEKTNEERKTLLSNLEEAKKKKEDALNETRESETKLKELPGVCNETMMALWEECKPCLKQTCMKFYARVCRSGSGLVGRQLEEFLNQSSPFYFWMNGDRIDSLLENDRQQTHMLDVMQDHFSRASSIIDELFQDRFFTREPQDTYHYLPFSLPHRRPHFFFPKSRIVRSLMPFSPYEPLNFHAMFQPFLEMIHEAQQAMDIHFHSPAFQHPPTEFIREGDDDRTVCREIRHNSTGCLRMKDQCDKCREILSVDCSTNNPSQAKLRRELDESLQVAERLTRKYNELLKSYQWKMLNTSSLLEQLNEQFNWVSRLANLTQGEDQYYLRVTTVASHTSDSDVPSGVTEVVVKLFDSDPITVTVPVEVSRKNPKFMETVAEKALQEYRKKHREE

binding [1]	binding [2]	Substance
binds		Clusterin (CLU), expressed from a CLU plasmid (from UniProt P10909 23-449)
	binds	Atg3, expressed from an Atg3 plasmid (from UniProt Q9NT62 1-314) (enzyme)

Reference: paper PMC4275590
